No constants are given. Whether binding was seen depends on the method and setting. Binding seen in cells or lysates may run through a third protein. For some of these results: Binding can be weak; no strength is given. One block for each binder: values may come before it.
How the values were obtained:
[1] = target: microtubules assembled from purified tubulin; test: co-sedimentation; microtubule-associated protein spin-down kit; 10 ug Taxol-stabilized microtubules with 30-60 ug cytosolic extract of HeLa cells, 50 uL, 20 min at RT; pelleted at 100,000 x g through a 40% glycerol cushion; cells non-treated, nocodazole-treated or released from a double thymidine block; only the target purified
[2] = target: microtubules assembled from purified tubulin; test: co-sedimentation; as a5, extracts of HeLa cells treated with 100 ng/mL nocodazole for 16 hr only; only the target purified
[3] = target: microtubules assembled from purified tubulin; test: condition: only extracts of cells treated with 100 ng/mL nocodazole for 16 hr; co-sedimentation; as a5, extracts of HeLa cells treated with 100 ng/mL nocodazole for 16 hr only; only the target purified

binding [1]: binds
B1: CLASP2 (endogenous) (protein, UniProt O75122 1-1294)
chain: MAMGDDKSFDDEESVDGNRPSSAASAFKVPAPKTSGNPANSARKPGSAGGPKVGGASKEGGAGAVDEDDFIKAFTDVPSIQIYSSRELEETLNKIREILSDDKHDWDQRANALKKIRSLLVAGAAQYDCFFQHLRLLDGALKLSAKDLRSQVVREACITVAHLSTVLGNKFDHGAEAIVPTLFNLVPNSAKVMATSGCAAIRFIIRHTHVPRLIPLITSNCTSKSVPVRRRSFEFLDLLLQEWQTHSLERHAAVLVETIKKGIHDADAEARVEARKTYMGLRNHFPGEAETLYNSLEPSYQKSLQTYLKSSGSVASLPQSDRSSSSSQESLNRPFSSKWSTANPSTVAGRVSAGSSKASSLPGSLQRSRSDIDVNAAAGAKAHHAAGQSVRSGRLGAGALNAGSYASLEDTSDKLDGTASEDGRVRAKLSAPLAGMGNAKADSRGRSRTKMVSQSQPGSRSGSPGRVLTTTALSTVSSGVQRVLVNSASAQKRSKIPRSQGCSREASPSRLSVARSSRIPRPSVSQGCSREASRESSRDTSPVRSFQPLASRHHSRSTGALYAPEVYGASGPGYGISQSSRLSSSVSAMRVLNTGSDVEEAVADALKKPARRRYESYGMHSDDDANSDASSACSERSYSSRNGSIPTYMRQTEDVAEVLNRCASSNWSERKEGLLGLQNLLKNQRTLSRVELKRLCEIFTRMFADPHGKRVFSMFLETLVDFIQVHKDDLQDWLFVLLTQLLKKMGADLLGSVQAKVQKALDVTRESFPNDLQFNILMRFTVDQTQTPSLKVKVAILKYIETLAKQMDPGDFINSSETRLAVSRVITWTTEPKSSDVRKAAQSVLISLFELNTPEFTMLLGALPKTFQDGATKLLHNHLRNTGNGTQSSMGSPLTRPTPRSPANWSSPLTSPTNTSQNTLSPSAFDYDTENMNSEDIYSSLRGVTEAIQNFSFRSQEDMNEPLKRDSKKDDGDSMCGGPGMSDPRAGGDATDSSQTALDNKASLLHSMPTHSSPRSRDYNPYNYSDSISPFNKSALKEAMFDDDADQFPDDLSLDHSDLVAELLKELSNHNERVEERKIALYELMKLTQEESFSVWDEHFKTILLLLLETLGDKEPTIRALALKVLREILRHQPARFKNYAELTVMKTLEAHKDPHKEVVRSAEEAASVLATSISPEQCIKVLCPIIQTADYPINLAAIKMQTKVIERVSKETLNLLLPEIMPGLIQGYDNSESSVRKACVFCLVAVHAVIGDELKPHLSQLTGSKMKLLNLYIKRAQTGSGGADPTTDVSGQS

binding [2]: binds weakly | binding [3]: no binding | binding [1]: binds
B2: HOOK3 (endogenous) (protein, UniProt Q86VS8 1-718)
chain: MFSVESLERAELCESLLTWIQTFNVDAPCQTVEDLTNGVVMAQVLQKIDPAYFDENWLNRIKTEVGDNWRLKISNLKKILKGILDYNHEILGQQINDFTLPDVNLIGEHSDAAELGRMLQLILGCAVNCEQKQEYIQAIMMMEESVQHVVMTAIQELMSKESPVSAGNDAYVDLDRQLKKTTEELNEALSAKEEIAQRCHELDMQVAALQEEKSSLLAENQVLMERLNQSDSIEDPNSPAGRRHLQLQTQLEQLQEETFRLEAAKDDYRIRCEELEKEISELRQQNDELTTLADEAQSLKDEIDVLRHSSDKVSKLEGQVESYKKKLEDLGDLRRQVKLLEEKNTMYMQNTVSLEEELRKANAARSQLETYKRQVVELQNRLSEESKKADKLDFEYKRLKEKVDSLQKEKDRLRTERDSLKETIEELRCVQAQEGQLTTQGLMPLGSQESSDSLAAEIVTPEIREKLIRLQHENKMLKLNQEGSDNEKIALLQSLLDDANLRKNELETENRLVNQRLLEVQSQVEELQKSLQDQGSKAEDSVLLKKKLEEHLEKLHEANNELQKKRAIIEDLEPRFNNSSLKIEELQEALRKKEEEMKQMEERYKKYLEKAKSVIRTLDPKQNQGAAPEIQALKNQLQERDRLFHSLEKEYEKTKSQREMEEKYIVSAWYNMGMTLHKKAAEDRLASTGSGQSFLARQRQATSSRRSYPGHVQPATAR
